# From PubChem BioAssay AID1376 (SRMLSC, 2008)
# Chains of the proteins cited; added tags and fusions are not shown. Lines headed by an entry give the natural chain unless they say otherwise; changes in a name come on top.
# UniProt P9WMN3: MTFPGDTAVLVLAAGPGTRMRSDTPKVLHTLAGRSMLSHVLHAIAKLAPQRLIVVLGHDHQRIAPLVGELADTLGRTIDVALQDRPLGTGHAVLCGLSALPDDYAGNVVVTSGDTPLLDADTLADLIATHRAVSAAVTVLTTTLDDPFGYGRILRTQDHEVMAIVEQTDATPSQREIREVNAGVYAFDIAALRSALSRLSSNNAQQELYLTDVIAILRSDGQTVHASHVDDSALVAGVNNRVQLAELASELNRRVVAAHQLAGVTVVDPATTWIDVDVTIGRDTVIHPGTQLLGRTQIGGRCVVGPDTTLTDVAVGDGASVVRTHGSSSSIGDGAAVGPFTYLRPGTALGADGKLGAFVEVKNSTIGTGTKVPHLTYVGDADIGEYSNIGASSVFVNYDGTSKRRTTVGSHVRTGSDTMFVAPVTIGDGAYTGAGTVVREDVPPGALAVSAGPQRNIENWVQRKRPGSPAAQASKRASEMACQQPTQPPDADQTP
# About 530 (0.24%) of roughly 220,000 compounds were called active. The inconclusive results got no clear call from the source; some entries with a clear call stand among them for comparison. Cut-off read from the data, not from the text of the source: active = inhibition above about 13%; inconclusive = no clear call, values can overlap the other calls; inactive = below that.
# Biological target: Bifunctional protein GlmU (Mycobacterium tuberculosis (strain ATCC 25618 / H37Rv)) (UniProt P9WMN3)
# Assay: inhibition of mycobacterial GlmU enzyme – biochemical, glucosamine-1-phosphate acetyltransferase (AID 1376);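 note: 0% = complete reaction with vehicle and 100% = reaction without substrate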
# Settings: M. tuberculosis GlmU acetyltransferase enzyme assay; active compounds read high;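 tested at 30 µM in the primary screen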
row,Structure (SMILES),inhibition
1,CCOC(=O)CSc1nc2sc(C)c(C)c2c(=O)n1C,inactive: 3.47%
2,CN(C)c1ccc(C2CC(=O)NC3=C2C(=O)CC(C)(C)C3)cc1 (configuration not stated),inconclusive: 41.7%
3,Nc1cc(C(=O)O)c(N)c2c1C(=O)c1ccccc1C2=O,active: 12.9%
4,[O-][N+]1=C2CCC/C(=N\O)C2=NC12CCCCC2,inconclusive: 6.03%
5,S=C(NCCc1ccccn1)Nc1cccc(Cl)c1,inactive: 2.84%
6,CCCOP(=O)(c1ccccc1)c1ccccc1,inactive: 0.12%
7,CCOC(=O)c1ccc(NC(=O)c2nc[nH]c2C(=O)NCc2ccccc2)cc1,inconclusive: 13%
8,O=C(COc1ccc(OCc2ccccc2)cc1)NC1CCOC1=O (configuration not stated),inconclusive: 2.05%
9,Cc1cccnc1-n1c(CN2C(=O)c3ccccc3C2=O)nc2ccccc2c1=O,inconclusive: -0.27%
10,O=C(CCSc1nnc(-c2ccncc2)o1)Nc1ccc(F)cc1,inconclusive: 13.9%
11,Cc1c(NC(=O)CN2C(=O)c3ccccc3C2=O)c(=O)n(-c2ccccc2)n1C,inconclusive: 15.8%
12,CC1(C)CC(=O)C(CC(=O)NC(=O)NCc2ccccc2)=C(O)C1,inconclusive: 15.4%
13,O=C(Nc1sc2c(c1C(=O)O)CCC2)c1cccs1,inconclusive: 14.5%
14,COC(C[C@@H]1O[C@@H]1C(=O)[C@@H](C)OCc1ccccc1)OC,active: 14.7%
15,c1ccc2sc(-c3ccc4c(c3)OCO4)nc2c1,inconclusive: 0.1%
16,CC1(C)CC(=O)C(C=NCCc2ccc(O)cc2)=C(O)C1,inconclusive: 13.5%
17,Cc1cc(=O)n2[nH]c(=O)c(N=Nc3ccccc3)c2[nH]1,inactive: 4.01%
18,O=C(C1COc2ccccc2O1)N1CCN(Cc2ccc3c(c2)OCO3)CC1 (configuration not stated),inconclusive: 5.99%
19,CCN(CC)C(=O)c1[nH]cnc1C(=O)N[C@@H](C)C(=O)OC(C)(C)C,inactive: -5.07%
20,CSc1ccccc1C(=O)C1CCCN(Cc2ccn[nH]2)C1 (configuration not stated),inactive: 10.5%
21,CCN(CC)S(=O)(=O)c1cc(C(=O)O)ccc1Cl,inconclusive: 5.28%

# Two records picked at random from the list so far:
row,Structure (SMILES),inhibition
20,CSc1ccccc1C(=O)C1CCCN(Cc2ccn[nH]2)C1 (configuration not stated),inactive: 10.5%
11,Cc1c(NC(=O)CN2C(=O)c3ccccc3C2=O)c(=O)n(-c2ccccc2)n1C,inconclusive: 15.8%

# Further results

row,Structure (SMILES),inhibition
1,COc1ccc(-c2oc3cc(O)c(OC)c(O)c3c(=O)c2OC)cc1,inconclusive: 14.6%
2,Cc1ccc(SC(C)c2nc(-c3cccnc3)no2)cc1 (configuration not stated),inactive: -3.18%
3,CCOC(=O)c1cnc(SCC(=O)c2ccc3c(c2)OCCO3)nc1N,inactive: -5.31%
4,C=CC1CN2CCC1CC2c1[nH]c2ccccc2c1CCO (configuration not stated),inactive: -1.33%
5,Cc1cc(-c2nc3c4c5c(sc4[nH]c(=O)n3n2)CCC5)c(C)o1,inconclusive: 16.2%
6,Cc1ccc(C2=NC(=O)/C(=C/c3cc(O)c(O)c(Br)c3)S2)cc1,active: 17.7%
7,Cc1ccc(SC[C@H](Cc2ccccc2)N2CCN(CC(C)C)CCC2=O)cc1,inconclusive: 0.92%
8,CCN(CC)c1ccc(C2C(C(=O)OCCOC(C)C)=C(C)NC3=C2C(=O)CCC3)cc1 (configuration not stated),inconclusive: -1.74%
9,Cc1ccc(Oc2ccc(OCC(=O)OC3CCS(=O)(=O)C3)cc2)cc1 (configuration not stated),inactive: -1.4%
10,O=C(CC1Sc2ccccc2NC1=O)Nc1cccc(-c2nnc3n2CCCCC3)c1 (configuration not stated),active: 14.3%
11,O=C(/C=N/O)Nc1ccccc1,inconclusive: -1.45%
12,CCCCN(CCCC)CCNC(=O)CNC(=O)c1cccs1,inactive: 2.63%
13,CCCCCCc1nnc(NC(=O)OCC)s1,inconclusive: -4.59%
14,Cc1ccc(N/C=C(/C#N)c2ccsc2)cc1,inactive: 1.11%
15,O=C1CC(=O)c2c1cccc2[N+](=O)[O-],active: 17%
16,CCn1c(=O)c(=O)[nH]c2cc(C(=O)Nc3ccc(S(=O)(=O)N4CCCC4)cc3)ccc21,inconclusive: 15.4%
17,OCCNc1nc(Nc2ccccc2Cl)nc(N2CCCC2)n1,inactive: 2.46%
18,O=C(O)c1cc(-c2ccc(/C=C3\NC(=O)N(c4ccccc4)C3=O)o2)ccc1Cl,active: 13.6%
19,CCn1c(SCc2nc3ccccc3s2)nc2cc(S(=O)(=O)N3CCOCC3)ccc21,inconclusive: 47.7%
20,Cc1cc(C(=O)CSc2nnc(N)s2)c(C)n1CCc1ccc(Cl)cc1,inconclusive: 14.9%
21,Cc1onc(-c2ccccc2Cl)c1C(=O)N1CC(C)OC(C)C1 (configuration not stated),inconclusive: 13.3%

row,Structure (SMILES),inhibition
1,CC(C)CCNc1nnnc2c1sc1nc(N3CCOCC3)c3c(c12)CC(C)(C)SC3,inactive: 2.31%
2,CCOC(=O)c1ccc2c(c1)C1C=CCC1C(C(=O)O)N2 (configuration not stated),inconclusive: 21.5%
3,Cc1cc(N/C=C2\CCCCC2=O)no1,inconclusive: 13.1%
4,CN1CCSc2ccc(C(=O)Nc3cc(F)ccc3F)cc21,inactive: -5.68%
5,Cc1cccc(N2C(=O)CC(=O)NC2=O)c1,inconclusive: -0.24%
6,Cn1cccc1CN1CCN(C(=O)COc2ccccc2)CC1,inconclusive: -1.3%
7,COc1ccccc1C(=O)NCc1n[nH]c(=S)n1Cc1ccccc1,inactive: 0.36%
8,CN(C)Cc1c(O)ccc2c3c(c(=O)oc12)CCCCC3,inactive: 0.45%
9,COc1ccc(C(CNC(=O)COc2ccccc2-c2ccccc2)N2CCOCC2)cc1 (configuration not stated),inactive: -8.37%
10,CCOC(=O)C1CCCN(C(=O)CCCOc2cc(=O)n(C)c3ccccc23)C1 (configuration not stated),inconclusive: 1.78%
11,COCCCNc1nc2nonc2nc1N1CCN(C2CCCC2)CC1,inactive: -4.2%
12,Cc1cc(C)c2c3c(sc2n1)C1(CCSCC1)C(C#N)=C(N)O3,inconclusive: -0.13%
13,Nc1nc2n(c1C(=O)c1ccccc1)CCC2,inconclusive: -2.57%
14,O=C1C2C3C=CC(CC3)C2C(=O)N1/N=C/c1c(O)ccc2ccccc12 (configuration not stated),inactive: -1.22%
15,Cc1cc(C)c2c(=O)n(CC(=O)Nc3ccc(Cl)cc3)sc2n1,active: 13%
16,COc1ccc(C(=O)N2CC=C(c3ccccc3)CC2)cc1S(=O)(=O)N1CCOCC1,inconclusive: -0.99%
17,Cc1cc(C)n(-c2ccc(C(=O)OCC(=O)NCc3ccco3)cc2)n1,inconclusive: 13.1%
18,CCOC(=O)C1=C(Nc2ccccc2)OCC1=O,inconclusive: 4.88%
19,Cc1ccc(OCCC(=O)OCC(=O)C(C)(C)C)cc1,inconclusive: 13.3%
20,Cc1cc(/C=C2\SC(=S)NC2=O)c(C)[nH]1,active: 13.5%
21,CC(C)NC(=O)C(=O)NCCCOC(C)C,inconclusive: 4.68%

row,Structure (SMILES),inhibition
1,Cc1cc(C)nc(SCC2COc3ccccc3O2)n1 (configuration not stated),inconclusive: 15.8%
2,COc1cc2c(ccc3cc(OC)c(OC)c(O)c32)cc1O,inconclusive: 13.6%
3,Cc1cccc(N2CCN(C(=O)N3CCOCC3)CC2)c1C,active: 13.8%
4,CCOC(=O)N/C(N)=N/c1nc2ccccc2s1,inconclusive: 0.54%
5,O=C(NCC1CCCO1)c1cccc(-n2cnnn2)c1 (configuration not stated),inconclusive: -3.32%
6,CCC1(C)CC(CC(=O)O)(c2ccccc2OC)CCO1 (configuration not stated),inconclusive: 18%
7,CCCCCCn1c(SCC(=O)Nc2cc(C)on2)nc2ccccc2c1=O,inconclusive: -1.02%
8,O=C1CN=C(c2ccc(Br)cc2)c2oc3ccccc3c2N1,active: 14.2%
9,COc1ccc(CC(=O)n2nc(-c3cccnc3)nc2N)cc1,inconclusive: 2.84%
10,N#C/C(=C\c1ccc([N+](=O)[O-])o1)c1nc2ccccc2[nH]1,inactive: -6.95%
11,CC1CCCC(C)N1C(=O)Nc1cccc(Cl)c1 (configuration not stated),inconclusive: 9.56%
12,COCC(=O)Nc1nnc(-c2cccs2)s1,inconclusive: -1.96%
13,COC(=O)CSc1nc2sc3c(c2c(=O)[nH]1)CCC3,inconclusive: 12.8%
14,CCOC(=O)C1CCN(C(=O)Nc2ccc3nc(-c4ccco4)c(-c4ccco4)nc3c2)CC1,inactive: 11.1%
15,Cc1noc(C)c1CSc1nc2ccccc2s1,inconclusive: 12.8%
16,OCC(Cc1ccc2c(c1)OCO2)C(CO)Cc1ccc2c(c1)OCO2 (configuration not stated),inconclusive: 14.4%
17,O=c1cc2c(=O)oc3cc(O)c(O)oc3c2c(O)c1O,active: 16.8%
18,Cc1ccc(NS(=O)(=O)c2ccc(C(=O)N3CCCN(C)CC3)cc2)cc1,inconclusive: 32.9%
19,COc1cccc(C(=O)Nc2ccc(NC(=O)C(C)C)nc2)c1,inconclusive: 13%
